Values quoted from earlier work, collected in patent publication US20180207268A1, “COMBINATION THERAPY FOR CANCER” (ImClone LLC, priority 2015, published 2018).
At least one compound was matched to its structure with a doubt left.

Test system: ADSC and ECFC co-culture
Conditions: cited from earlier work

CCN(CC)CCNC(=O)c1c(C)[nH]c(/C=C2\C(=O)Nc3ccc(F)cc32)c1C [Sunitinib]
effectiveness in cord formation (established mode): but not the established mode | IC50 (neo-mode, read-out: IC50 cord formation): 38 nM
